Some entries share one result that the patent states for a list of compounds.
System: nucleic acid polymerase
Experiment: PEM activity summary: primer extension on 45mer, 100mer, 150mer, 222mer DNA templates, gel (Table 2)
Type: biochemical
Conditions: preliminary functional characterization
Description: In some instances, the PEM compounds of the present disclosure were tested in primer extension reactions using DNA templates of the following lengths: A) 45mer; B) 100mer; C) 150mer; and D) 222mer.

| Functional Category: PEM effect | SMILES |
| --- | --- |
| PEM effect | COC(=O)c1cc(-c2cn(-c3cc(C)c(O)c(C(=O)O)c3)nn2)nc(-c2cn(-c3cc(C)c(O)c(C(=O)O)c3)nn2)c1 [Compound 44, 5-(4-(6-(4-(3-carboxy-4-hydroxy-5-methylphenyl)-1H-1,2,3-triazol-1-yl)-4-(methoxycarbonyl)pyridin-2-yl)-1H-1,2,3-triazol-1-yl)-2-hydroxy-3-methylbenzoic acid] |
| PEM effect | O=C(NC1CCCCC1)c1cc(-c2cn(-c3ccc(C(=O)O)c(O)c3)nn2)nc(-c2cn(-c3ccc(C(=O)O)c(O)c3)nn2)c1 [Compound 67, 4,4′-((4-(cyclohexylcarbamoyl)pyridine-2,6-diyl)bis(1H-1,2,3-triazole-4,1-diyl))bis(2-hydroxybenzoic acid)] |
| PEM effect | COC(=O)Cn1cc(-c2ccc3[nH]c4ccc(-c5cn(CC(=O)OC)nn5)cc4c3c2)nn1 [Compound 8, dimethyl 2,2′-((9H-carbazole-3,6-diyl)bis(1H-1,2,3-triazole-4,1-diyl))diacetate] |
| PEM effect | COc1ccc(-n2cc(-c3cccc(-c4cn(-c5ccc(OC)cc5)nn4)c3)nn2)cc1 [Compound 24, 1,3-bis(1-(4-methoxyphenyl)-1H-1,2,3-triazol-4-yl)benzene] |
| PEM effect | CCNC(=O)c1cc(-c2cn(-c3ccc(C(=O)Nc4ccc(C(=O)O)c(C(F)(F)F)c4)c(C(F)(F)F)c3)nn2)nc(-c2cn(-c3ccc(C(=O)Nc4ccc(C(=O)O)c(C(F)(F)F)c4)c(C(F)(F)F)c3)nn2)c1 [Compound 240, 4-(4-{4-[6-(1-{4-[N-4-Carboxy-3-(trifluoromethyl)phenylcarbamoyl]-3-(trifluoromethyl)phenyl}-1H-1,2,3-triazol-4-yl)-4-(N-ethylcarbamoyl)-2-pyridyl]-1H-1,2,3-triazol-1-yl}-2-(trifluoromethyl)benzylamino)-2-(trifluoromethyl)benzoic acid] |
| PEM effect | O=C(O)c1ccc(-n2cc(-c3nc(-c4cn(-c5ccc(C(=O)O)c(O)c5)nn4)c4nc[nH]c4n3)nn2)cc1O [Compound 214, 4-(4-{6-[1-(4-Carboxy-3-hydroxyphenyl)-1H-1,2,3-triazol-4-yl]-2-purinyl}-1H-1,2,3-triazol-1-yl)-2-hydroxybenzoic acid] |
| PEM effect | O=C(O)c1ccc(-n2cc(-c3cc(C(=O)N4CCN(C5CC5)CC4)cc(-c4cn(-c5ccc(C(=O)O)c(O)c5)nn4)n3)nn2)cc1O [Compound 55, 4,4′-((4-(4-cyclopropylpiperazine-1-carbonyl)pyridine-2,6-diyl)bis(1H-1,2,3-triazole-4,1-diyl))bis(2-hydroxybenzoic acid)] |
| PEM effect | O=C(O)c1ccc(-n2cc(-c3cncc(-c4cn(-c5ccc(C(=O)O)c(O)c5)nn4)n3)nn2)cc1O [Compound 20, 4,4′-(pyrazine-2,6-diylbis(1H-1,2,3-triazole-4,1-diyl))bis(2-hydroxybenzoic acid)] |
| PEM effect | O=C(O)c1ccc(-n2cc(-c3ccc4[nH]c5ccc(-c6cn(-c7ccc(C(=O)O)c(O)c7)nn6)cc5c4c3)nn2)cc1O [Compound 4, 4,4′-((9H-carbazole-3,6-diyl)bis(1H-1,2,3-triazole-4,1-diyl))bis(2-hydroxybenzoic acid)] |
| PEM effect | Nc1ccc(-n2cc(-c3cccc(-c4cn(-c5ccc(N)cc5)nn4)n3)nn2)cc1 [Compound 25, 4,4′-(pyridine-2,6-diylbis(1H-1,2,3-triazole-4,1-diyl))dianiline] |
| PEM effect | O=C(NC1CCC1)c1cc(-c2cn(-c3ccc(C(=O)O)c(O)c3)nn2)nc(-c2cn(-c3ccc(C(=O)O)c(O)c3)nn2)c1 [Compound 58, 4,4′-((4-(cyclobutylcarbamoyl)pyridine-2,6-diyl)bis(1H-1,2,3-triazole-4,1-diyl))bis(2-hydroxybenzoic acid)] |

Source: patent US20260365633A1, “Novel PEM Structures for SBX” (Roche Sequencing Solutions, Inc., priority 2023, published 2026)
